The list shows only some results of the screen, not a fair sample: it gathers tests that were run many times, whatever their T/C, doses with no T/C, and many T/C values between a quarter and a half above the control. Further doses and runs are listed elsewhere. T/C: endpoint of the treated group in % of that of the vehicle group. Some entries give survivors of the animals treated and no T/C: the source holds a T/C of zero for them, seemingly a mark for toxic or unscored doses. Some doses without a T/C left all or most animals alive at the check, yet need not have been tolerated: survival well below the control is almost never listed, so the zero probably covers shortened survival too. Survivors were counted at the toxicity check, usually on the fifth day, unless a day is given; later deaths do not show. Schedules are NCI's codes, read here as Q, the interval in days (D) or hours (H), X, the number of doses. Some structures stand for samples that the source files as different forms (salt, stereo form or complex); doses refer to the form tested. Some entries hold several experiments; the values are given in rising order. For survival time, the PubChem record calls one and a half times the control and up active, and a quarter to a half above the control has no call in these data; cut-offs in other NCI protocols can differ. Some T/C values are followed by the survivors on the day toxicity was checked, most often the fifth; where none is given, no animal had died by that day. Signs of the kind (2×) say how often a value occurs here.
Tested on: CD2F1 mice, L1210 leukemia ip, survival T/C
Assay: NCI In Vivo Anticancer Drug Screen. Data for tumor model L1210 Leukemia (intraperitoneal) in CD2F1 (CDF1) mice
Conditions: T/C endpoint: mean survival time, higher T/C = longer survival
How it was run: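 Compound-dosed mice with transplantable tumor versus matched vehicle controls; endpoint ratio T/C reported.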

[1] = dose: 50.0 mg/kg/injection, schedule: Q01DX009 (ip), vehicle: saline with Tween-80
[2] = dose: 100.0 mg/kg/injection, schedule: Q01DX009 (ip), vehicle: saline with Tween-80
[3] = dose: 100.0 mg/kg/injection, schedule: Q04DX002 (ip), vehicle: saline with Tween-80
[4] = dose: 200.0 mg/kg/injection, schedule: Q01DX009 (ip), vehicle: saline with Tween-80
[5] = dose: 200.0 mg/kg/injection, schedule: Q04DX003 (ip), vehicle: saline with Tween-80
[6] = dose: 400.0 mg/kg/injection, schedule: Q04DX003 (ip), vehicle: saline with Tween-80
[7] = dose: 100.0 mg/kg/injection, schedule: Q04DX003 (ip), vehicle: saline with Tween-80
[8] = dose: 400.0 mg/kg/injection, schedule: Q01DX009 (ip), vehicle: saline with Tween-80

Compound: CCCCCCCCCCCCCCCCCCN1CCCN(CCCCCCCCCCCCCCCCCC)CC1
- T/C [1]: 98, 103, 105, 122, 124 % of control
- survivor count [1]: 3 of 6
- T/C [2]: 102, 103, 104 [5 of 6 alive], 111 [5 of 6 alive], 113, 122 % of control [2 of 3 alive]
- T/C [3]: 90 and 95 % of control
- survivor count [3]: 3 of 3 and 6 of 6
- survivor count [4]: 0 of 3, 0 of 6, 1 of 6, 3 of 6, 2 of 3
- T/C (dose: 200.0 mg/kg/injection, schedule: Q04DX002 (ip), vehicle: saline with Tween-80): 98, 103, 104 % of control (2×)
- survivor count (dose: 400.0 mg/kg/injection, schedule: Q04DX002 (ip), vehicle: other): 3 of 3
- survivor count (dose: 400.0 mg/kg/injection, schedule: Q04DX002 (ip), vehicle: saline with Tween-80): 0 of 6 and 1 of 3

Compound: CCN(CC)CCNc1cc(C)nc(/N=C(\N)Nc2ccc(Br)c(C(F)(F)F)c2)n1
- survivor count [5]: 5 of 6
- survivor count [6]: 0 of 6

Compound: C[N+](C)(C)C1(Cc2ccc(Br)cc2)c2ccccc2-c2ccccc21
- survivor count [5]: 5 of 6
- survivor count [6]: 0 of 6

Compound: OCCN1CC1
- survivor count (dose: 12.5 mg/kg/injection, schedule: Q01DX009 (ip), vehicle: saline): 2 of 6
- survivor count (dose: 25.0 mg/kg/injection, schedule: Q01DX009 (ip), vehicle: saline): 0 of 6
- survivor count (dose: 50.0 mg/kg/injection, schedule: Q01DX009 (ip), vehicle: saline): 0 of 6

Compound: N/N=C(\N)N(Cc1ccccc1)c1ccccc1
- survivor count (dose: 75.0 mg/kg/injection, schedule: Q01DX001 (ip), vehicle: saline): 3 of 6
- survivor count (dose: 150.0 mg/kg/injection, schedule: Q01DX001 (ip), vehicle: saline): 0 of 6
- survivor count (dose: 300.0 mg/kg/injection, schedule: Q01DX001 (ip), vehicle: saline): 0 of 6

Compound: CC(=O)NC1C(OC(C)=O)OC(COC(c2ccccc2)(c2ccccc2)c2ccccc2)C(O)C1OC(C)=O (centres undefined)
- survivor count (dose: 25.0 mg/kg/injection, schedule: Q04DX002 (ip), vehicle: saline with Tween-80): 6 of 6

Compound: O=C(O)C1C2CC3C(C2)C31 (centres undefined)
- survivor count (dose: 400.0 mg/kg/injection, schedule: Q01DX009 (ip), vehicle: other): 2 of 6

Compound: CCS(=O)(=O)/C=C\S(=O)(=O)CC
- survivor count (dose: 12.5 mg/kg/injection, schedule: Q04DX003 (ip), vehicle: Klucel (hydroxypropylcellulose) (HPC)): 0 of 6
- survivor count (dose: 25.0 mg/kg/injection, schedule: Q04DX003 (ip), vehicle: Klucel (hydroxypropylcellulose) (HPC)): 0 of 6
- survivor count (dose: 50.0 mg/kg/injection, schedule: Q04DX003 (ip), vehicle: Klucel (hydroxypropylcellulose) (HPC)): 0 of 6

Compound: c1cc[n+]2c(c1)-c1cccc[n+]1CCCC2
- survivor count (dose: 300.0 mg/kg/injection, schedule: Q01DX009 (ip), vehicle: saline): 0 of 6

Compound: COc1ccc2ccccc2c1-c1c(O)ccc2ccccc12
- survivor count (dose: 100.0 mg/kg/injection, schedule: Q01DX009 (ip), vehicle: other): 5 of 6
- survivor count (dose: 200.0 mg/kg/injection, schedule: Q01DX009 (ip), vehicle: other): 6 of 6

Compound: CC(C)(C)N[P+](C)(NC(C)(C)C)c1ccccc1
- survivor count (dose: 25.0 mg/kg/injection, schedule: Q04DX003 (ip), vehicle: saline): 2 of 6
- survivor count (dose: 50.0 mg/kg/injection, schedule: Q04DX003 (ip), vehicle: saline): 0 of 6
- survivor count [7]: 0 of 6
- survivor count [5]: 0 of 6
- survivor count [6]: 0 of 6

Compound: Cc1cccc(OP(=O)(c2ccccc2)c2ccccc2)c1
- survivor count (dose: 100.0 mg/kg/injection, schedule: Q01DX005 (ip), vehicle: saline with Tween-80): 5 of 6
- survivor count (dose: 200.0 mg/kg/injection, schedule: Q01DX005 (ip), vehicle: saline with Tween-80): 6 of 6
- survivor count (dose: 400.0 mg/kg/injection, schedule: Q01DX005 (ip), vehicle: saline with Tween-80): 6 of 6

Compound: CCS(=O)(=O)OCCCNCCCOS(=O)(=O)CC
- T/C (dose: 50.0 mg/kg/injection, schedule: Q01DX001 (ip), vehicle: saline): 129 % of control

Compound: O=c1c2cc[nH]c2ncn1C1OC(CO)C(O)C1O (centres undefined)
- survivor count (dose: 50.0 mg/kg/injection, schedule: Q01DX005 (ip), vehicle: saline): 0 of 4
- survivor count (dose: 100.0 mg/kg/injection, schedule: Q01DX005 (ip), vehicle: saline): 0 of 4
- survivor count (dose: 200.0 mg/kg/injection, schedule: Q01DX005 (ip), vehicle: saline): 0 of 4
- survivor count (dose: 400.0 mg/kg/injection, schedule: Q01DX005 (ip), vehicle: saline): 0 of 4

Compound: COc1ccc2c(c1O)-c1c(OC)c(OC)cc3c1C(C2)N(C)CC3 (centres undefined)
- survivor count (dose: 100.0 mg/kg/injection, schedule: Q01DX009 (ip), vehicle: saline): 2 of 6
- survivor count (dose: 200.0 mg/kg/injection, schedule: Q01DX009 (ip), vehicle: saline): 1 of 6
- survivor count (dose: 400.0 mg/kg/injection, schedule: Q01DX009 (ip), vehicle: saline): 0 of 6

Compound: S=C1NCCO1
- survivor count [8]: 3 of 6

Compound: O=[N+]([O-])c1[nH]c(Br)nc1Br
- survivor count [6]: 0 of 6

Compound: CCOC(CNCc1ccc(OC)cc1)OCC
- survivor count (dose: 400.0 mg/kg/injection, schedule: Q01DX001 (ip), vehicle: saline): 0 of 6

Compound: C=CCOCC(O)C[As](=O)(O)c1ccc(Cl)cc1 (centres undefined)
- survivor count (dose: 25.0 mg/kg/injection, schedule: Q04DX003 (ip), vehicle: saline with Tween-80): 3 of 6

Compound: CCCCCCCCCCCCCC#CC(=O)O
- survivor count [2]: 3 of 6

Compound: Cc1nc2ccc(CCN3CCN(c4ccccc4Cl)CC3)cc2[nH]1
- T/C (dose: 100.0 mg/kg/injection, schedule: Q04DX003 (ip), vehicle: Klucel (hydroxypropylcellulose) (HPC)): 126 % of control
- survivor count (dose: 200.0 mg/kg/injection, schedule: Q04DX003 (ip), vehicle: Klucel (hydroxypropylcellulose) (HPC)): 1 of 6
- survivor count (dose: 400.0 mg/kg/injection, schedule: Q04DX003 (ip), vehicle: Klucel (hydroxypropylcellulose) (HPC)): 0 of 6

Compound: O=Nc1ccc(O)cc1
- survivor count [6]: 0 of 6

Compound: NNC(=S)NC1CC2C=CC1C2 (centres undefined)
- survivor count [7]: 1 of 3
- survivor count [5]: 0 of 3
- survivor count [6]: 0 of 3

Compound: O=S1(=O)Cc2c(Br)c(Br)c(Br)c(Br)c2C1
- survivor count [2]: 6 of 6
- survivor count [4]: 6 of 6
- survivor count [8]: 4 of 6

Compound: C[N+](C)(C)CCC(=O)c1ccc(C(=O)CC[N+](C)(C)C)cc1
- survivor count (dose: 400.0 mg/kg/injection, schedule: Q01DX001 (ip), vehicle: saline with Tween-80): 0 of 6

Compound: C#CCN(C)/N=N/c1nc[nH]c1C(N)=O
- T/C (dose: 25.0 mg/kg/injection, schedule: Q01DX009 (ip), vehicle: Klucel (hydroxypropylcellulose) (HPC)): 129 % of control [5 of 6 alive]
- T/C (dose: 50.0 mg/kg/injection, schedule: Q01DX009 (ip), vehicle: Klucel (hydroxypropylcellulose) (HPC)): 145 % of control
- T/C (dose: 100.0 mg/kg/injection, schedule: Q01DX009 (ip), vehicle: Klucel (hydroxypropylcellulose) (HPC)): 137 % of control

Compound: O=c1oc(-c2ccc(Cl)cc2)nc2cc(Cl)ccc12
- survivor count [5]: 1 of 6
- survivor count [6]: 0 of 6

Compound: COC(=O)C(=O)O
- survivor count [8]: 5 of 6

Compound: O=C(CNC(=O)Nc1cccc([N+](=O)[O-])c1)N/N=C/C=C/c1ccccc1
- survivor count [2]: 3 of 3

Compound: O=C(CCCl)OCCCl
- survivor count [6]: 1 of 6

Compound: Cc1ncc(C=O)c(C)c1O
- survivor count (dose: 150.0 mg/kg/injection, schedule: Q01DX001 (ip), vehicle: other): 3 of 6
- survivor count (dose: 300.0 mg/kg/injection, schedule: Q01DX001 (ip), vehicle: other): 0 of 6

Compound: CC(=O)CC(C)(C)N
- survivor count [5]: 5 of 6
- survivor count [6]: 0 of 6

Compound: O=C(c1ccc(-c2ccccc2)cc1)c1no[n+]([O-])c1C(=O)c1ccc(-c2ccccc2)cc1
- survivor count [8]: 6 of 6

Compound: [Cl][Pt+2][Cl].[NH-]c1ccc([N+](=O)[O-])cc1[NH-]
- survivor count (dose: 160.0 mg/kg/injection, schedule: Q01DX009 (ip), vehicle: saline with Tween-80): 2 of 8
- survivor count (dose: 320.0 mg/kg/injection, schedule: Q01DX009 (ip), vehicle: saline with Tween-80): 0 of 8

— PubChem BioAssay AID256 (DTP/NCI, 2004)
